This is an account of results in PubChem BioAssay AID248 (DTP/NCI, 2004).

For this test, the system named is L1210 leukemia ip in BDF1 mice, survival T/C. Nature of the test: NCI In Vivo Anticancer Drug Screen. Data for tumor model L1210 Leukemia (intraperitoneal) in B6D2F1 (BDF1) mice. As to conditions: T/C endpoint: mean survival time, higher T/C = longer survival.
Setting [1] is: dose: 300.0 mg/kg/injection, schedule: Q01DX001 (ip), vehicle: other.
The mark [2] stands for this setting: dose: 200.0 mg/kg/injection, schedule: Q01DX001 (ip), vehicle: saline.
Setting [3] is: dose: 400.0 mg/kg/injection, schedule: Q01DX001 (ip), vehicle: saline.
Where [4] appears, read: dose: 400.0 mg/kg/injection, schedule: Q04DX003 (ip), vehicle: saline.
[5] abbreviates: dose: 100.0 mg/kg/injection, schedule: Q01DX009 (ip), vehicle: saline.
The mark [6] stands for this setting: dose: 200.0 mg/kg/injection, schedule: Q04DX003 (ip), vehicle: saline.
Setting [7] is: dose: 100.0 mg/kg/injection, schedule: Q04DX002 (ip), vehicle: carboxymethylcellulose (CMC).
Setting [8] is: dose: 400.0 mg/kg/injection, schedule: Q04DX003 (ip), vehicle: Klucel (hydroxypropylcellulose) (HPC).

The list does not hold the whole screen: it is rich in T/C values a quarter to a half above the control, in often repeated tests (any T/C) and in doses without a T/C. Other doses and runs of a compound stand elsewhere. T/C: endpoint of the treated group in % of that of the vehicle group. Some entries give survivors of the animals treated and no T/C: the source holds a T/C of zero for them, seemingly a mark for toxic or unscored doses. Some survivor counts are full or nearly so, which does not show that the dose was tolerated: the source hardly ever lists a survival T/C far under the control, and the zero likely stands for such cases as well. Counts of survivors are from the toxicity check (mostly the fifth day) where no day follows; animals may have died later. Schedule codes are those of the source, read here as Q, the interval in days (D) or hours (H), X, the number of doses. Some entries hold several experiments; the values are given in rising order. Some schedules carry Z or #; the key to these is not given. Where survival is the endpoint, this PubChem deposit counts one and a half times the control or more as active, and values a quarter to a half above the control carry no call in these data; other NCI protocols may use other cut-offs. Some T/C values are followed by the survivors on the day toxicity was checked, most often the fifth; without a count, all were alive then.

For the compound `NC(=S)N/N=C/c1cccnc1`, the survivor count (dose: 200.0 mg/kg/injection, schedule: Q04DX002 (ip), vehicle: Klucel (hydroxypropylcellulose) (HPC)) is recorded as 0 of 2 and the survivor count (dose: 400.0 mg/kg/injection, schedule: Q04DX002 (ip), vehicle: Klucel (hydroxypropylcellulose) (HPC)) is recorded as 0 of 3.
As to `O=CNc1ccc2c(c1)Cc1cc(Cl)ccc1-2`, the survivor count (dose: 240.0 mg/kg/injection, schedule: Q01DX015 (ip), vehicle: carboxymethylcellulose (CMC)) is listed as 2 of 6.
`CCCCCCC(C)N(C)CCOC(=O)c1ccc([N+](=O)[O-])cc1` (stereo unspecified): under setting [1], the survivor count is 1 of 6.
For `CC(Br)CN1CCOCC1` (stereo unspecified), the survivor count by setting is: under setting [2], 0 of 6; under setting [3], 0 of 6.
For the compound `O=C1NCCN1c1ccccn1`, the survivor count under setting [4] was 0 of 6.
`CCC(CC)C(=O)O.[Ag]`: the survivor count under setting [2] is reported as 0 of 4 and the survivor count under setting [3] is 0 of 4.
In the case of `Nc1nc(Nc2ccc(C3=NCCN3)cc2)nc(Nc2ccc(C3=NCCN3)cc2)n1`, the T/C reads like this: (dose: 7.5 mg/kg/injection, schedule: Q01DX Z (ip), vehicle: methylcellulose (MC)) 125 % of control; (dose: 16.5 mg/kg/injection, schedule: Q01DX009 (ip), vehicle: saline) 128 % of control; (dose: 25.0 mg/kg/injection, schedule: Q01DX009 (ip), vehicle: saline) 143 % of control; (dose: 30.0 mg/kg/injection, schedule: Q01DX Z (ip), vehicle: methylcellulose (MC)) 128 % of control. Besides, the survivor count is 0 of 6 (dose: 60.0 mg/kg/injection, schedule: Q01DX Z (ip), vehicle: methylcellulose (MC)); 0 of 6 under setting [5]; 0 of 6 (dose: 120.0 mg/kg/injection, schedule: Q01DX Z (ip), vehicle: methylcellulose (MC)); 2 of 6 under setting [2]; 0 of 6 under setting [3].
Turning to `Cc1cc(N(CCCOS(C)(=O)=O)CCCOS(C)(=O)=O)ccc1C=Nc1ccc2ccccc2c1`, the survivor count reads like this: (dose: 100.0 mg/kg/injection, schedule: Q04DX003 (ip), vehicle: saline with Tween-80) 6 of 6; (dose: 200.0 mg/kg/injection, schedule: Q04DX003 (ip), vehicle: saline with Tween-80) 6 of 6.
Take `CCCCCCCCCCCCCCCCCC[N+]1(C)CCC1C` (stereo unspecified): where the note is “dose: 3.12 mg/kg/injection, schedule: Q04DX003 (ip), vehicle: saline”, the survivor count is recorded as 6 of 6.
For `Cc1cc(C(C)(C)C)c(Oc2ccc([N+](=O)[O-])cc2S(=O)(=O)O)c(C(C)(C)C)c1`, the survivor count (dose: 200.0 mg/kg/injection, schedule: Q01DX009 (ip), vehicle: saline with Tween-80) was 6 of 6.
For `CN(N)C=O`, the survivor count runs as follows: under setting [6], 6 of 6; under setting [4], 4 of 6.
As for `CCCCOP(=O)(OCCCC)Oc1cccc([N+](=O)[O-])c1`, the T/C is 93, 100, 103, 107 % of control (dose: 25.0 mg/kg/injection, schedule: Q04DX002 (ip), vehicle: carboxymethylcellulose (CMC)) and 100 % of control under setting [7]. The survivor count is, setting by setting: (dose: 50.0 mg/kg/injection, schedule: Q04DX002 (ip), vehicle: carboxymethylcellulose (CMC)) 4 of 6 and 3 of 3; (dose: 100.0 mg/kg/injection, schedule: Q01DX001 (ip), vehicle: carboxymethylcellulose (CMC)) 3 of 6; under setting [7], 0 of 3, 1 of 6, 2 of 6; (dose: 200.0 mg/kg/injection, schedule: Q04DX002 (ip), vehicle: carboxymethylcellulose (CMC)) 0 of 3 and 0 of 6; (dose: 400.0 mg/kg/injection, schedule: Q04DX002 (ip), vehicle: carboxymethylcellulose (CMC)) 0 of 3 and 1 of 6.
As for `CC1=CC(=O)OC1=O` (tested in a mixture with another compound), the survivor count (dose: 75.0 mg/kg/injection, schedule: Q01DX009 (ip), vehicle: carboxymethylcellulose (CMC)) is recorded as 2 of 6; the survivor count (dose: 150.0 mg/kg/injection, schedule: Q01DX009 (ip), vehicle: carboxymethylcellulose (CMC)) was 3 of 6; the survivor count (dose: 300.0 mg/kg/injection, schedule: Q01DX009 (ip), vehicle: carboxymethylcellulose (CMC)) is listed as 0 of 6. Moreover, the T/C (dose: 300.0 mg/kg/injection, schedule: Q01DX001 (ip), vehicle: carboxymethylcellulose (CMC)) was 126 % of control [5 of 6 alive].
For `C=NC`, the survivor count is 5 of 6 under setting [2], 3 of 6 under setting [6], 0 of 6 under setting [3] and 0 of 6 under setting [4].
With `CC1C[N-]CC(C)C1.CC1C[N-]CC(C)C1.[Cl][Pt+2]([Cl])([Cl])[Cl]` (stereo unspecified), the survivor count is, setting by setting: (dose: 50.0 mg/kg/injection, schedule: Q01DX009 (ip), vehicle: saline) 2 of 6; under setting [5], 1 of 6; under setting [6], 2 of 6; under setting [4], 0 of 6.
With `C1=C(c2ccccc2)CCC1`, the survivor count under setting [8] is listed as 1 of 6.
In the case of `Cc1cc(N(CCOS(C)(=O)=O)CCOS(C)(=O)=O)ccc1C=Nc1cccc(Cl)c1`, the survivor count is recorded as 6 of 6 (dose: 200.0 mg/kg/injection, schedule: Q04DX003 (ip), vehicle: Klucel (hydroxypropylcellulose) (HPC)) and 6 of 6 under setting [8].
Take `CCOc1cc(C=Nc2cccc(C(F)(F)F)c2)ccc1O`: under “dose: 400.0 mg/kg/injection, schedule: Q01DX009 (ip), vehicle: other”, the survivor count is recorded as 2 of 6.
In the case of `O=C(O)C(c1ccccc1)P(=S)(c1ccccc1)c1ccccc1` (stereo unspecified), under setting [1], the survivor count was 0 of 6.
On to `CCCN(CCC)/N=N/c1nc[nH]c1C(N)=O`, for which the survivor count (dose: 400.0 mg/kg/injection, schedule: Q01DX009 (ip), vehicle: saline with Tween-80) is recorded as 6 of 6.
For the compound `O=CNC1CCCCC1c1ccc(C2CCCCC2NC=O)cc1` (stereo unspecified), the survivor count is 0 of 6 under setting [2] and 0 of 6 under setting [3].
